# Experimental data as given in PubChem BioAssay AID504327 (National Center for Advancing Translational Sciences (NCATS), 2011).
# Protein sequences, listed by entry. Tags and fused reporters are not part of them.
# UniProt Q92830, whole entry, looked up: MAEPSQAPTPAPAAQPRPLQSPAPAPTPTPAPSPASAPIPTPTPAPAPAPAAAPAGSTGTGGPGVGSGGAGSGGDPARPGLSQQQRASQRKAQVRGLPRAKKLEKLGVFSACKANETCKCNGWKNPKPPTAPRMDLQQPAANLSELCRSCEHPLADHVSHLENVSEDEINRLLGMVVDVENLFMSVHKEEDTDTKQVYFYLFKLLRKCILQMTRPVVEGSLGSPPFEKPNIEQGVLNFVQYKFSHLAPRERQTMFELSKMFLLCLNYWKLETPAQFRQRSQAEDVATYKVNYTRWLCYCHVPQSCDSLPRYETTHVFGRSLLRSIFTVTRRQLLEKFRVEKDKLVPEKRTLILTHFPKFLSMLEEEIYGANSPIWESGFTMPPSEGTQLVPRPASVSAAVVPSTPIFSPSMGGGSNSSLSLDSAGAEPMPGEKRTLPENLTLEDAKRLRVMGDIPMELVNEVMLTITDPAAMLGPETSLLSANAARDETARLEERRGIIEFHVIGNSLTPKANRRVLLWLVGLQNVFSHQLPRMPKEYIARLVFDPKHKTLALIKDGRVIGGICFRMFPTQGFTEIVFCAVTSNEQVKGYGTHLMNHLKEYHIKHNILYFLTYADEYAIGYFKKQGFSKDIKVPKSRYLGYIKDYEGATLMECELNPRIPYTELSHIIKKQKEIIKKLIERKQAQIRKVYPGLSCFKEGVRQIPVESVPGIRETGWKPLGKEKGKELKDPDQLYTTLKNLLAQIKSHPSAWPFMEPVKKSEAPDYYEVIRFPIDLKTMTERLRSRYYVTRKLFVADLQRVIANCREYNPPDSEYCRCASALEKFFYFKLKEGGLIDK
# Hit rate of the full screen: of about 390,000 compounds, about 820 (0.21%) were called active. Inconclusive results, whose numbers are uncertain, are shown with a selection of clear calls. The call rests on the fitted dose curve; in most records, active means well fitted inhibition curve with a large enough effect; inconclusive means small, poorly fitted or top-dose-only effect, or another doubt; inactive means no such curve, though single readings can be large or run the other way. Where the call is inconclusive, the potency comes from a doubtful curve fit.
# Target: Histone acetyltransferase KAT2A (Homo sapiens) (UniProt Q92830)
# Experiment: qHTS Assay for Inhibitors of GCN5L2
# Settings: GCN5L2 HAT assay, ThioGlo1 CoA-SH fluorescence; series mostly up to 58.9 µM
# Method in brief: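 ThioGlo1-coupled HAT assay: 20nM GCN5L2, 70uM acetyl-CoA, 75uM H3(1-25) peptide, pH 7.5. Fluorescence read at 340/540nm at start and after 20 min at room temperature.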
# Potency means the concentration at half of the fitted maximal effect.
row,Structure (SMILES),Potency
1,C[C@H](NC(=O)[C@@H]1Cc2ccccc2CN1C(=O)OC(C)(C)C)C(=O)NCc1ccco1,inactive
2,COc1ccc(OC)c(N(CC(N)=O)S(=O)(=O)c2ccc(OC)c(OC)c2)c1,"inconclusive: 39.8 µM [inhibitor, single point]"
3,CC1CCCN(S(=O)(=O)c2ccc3c(c2)C(C)(C)C(=O)N3C)C1 (stereo unspecified),active: 28.2 µM
4,Cc1ccc(NC(=O)c2ccc(Cl)c(N3C(=O)C=CC3=O)c2)cc1,active: 17.8 µM
5,O=C(CNC(=S)N(Cc1ccccc1)Cc1ccccc1F)NCCc1ccc(Cl)cc1,inactive
6,Cc1cc(C)cc(C(=O)NCC(=O)N2CCC3(CC2)NCCc2[nH]cnc23)c1,"inconclusive: 31.6 µM [inhibitor, single point]"
7,COc1ccc(C(=O)c2ccc(OC)c(OC)c2)cc1OC,inactive
8,COCCn1c(C)cc(/C=C(\C#N)C(=O)OCC(=O)N(C)c2c(N)n(Cc3ccccc3)c(=O)[nH]c2=O)c1C,"inconclusive: 3.55 µM [inhibitor, partial curve]"
9,O=C1OC[C@H]2CCCC[C@@H](CO)ON12,"inconclusive: 22.4 µM [inhibitor, single point]"
10,COc1cc(/C=C/C(=O)OCC(=O)N2CCC(C)CC2)ccc1OCC#N,inactive
11,OC[C@@H]1[C@@H](c2ccc(Cl)cc2)C(c2ccccc2)=NN1c1ccccc1,"inconclusive: 50.1 µM [inhibitor, single point]"
12,Cc1ccc(Cn2cnc3nc4c(cc3c2=O)CCCC4)cc1,inactive
13,COc1ccc(C(=O)NN(c2ccccc2)c2ccccc2)cc1,"inconclusive: 1 µM [inhibitor, single point]"
14,Cc1ccc(C(=O)Nc2cccc(C(=O)NCc3ccccc3)c2)cc1,inactive
15,COc1ccc2c(c1)c(C(=O)O)c(C)n2-c1ccccc1,"inconclusive: 8.91 µM [inhibitor, single point]"
16,Cc1cccc(OCC(=O)Nc2ccc(S(=O)(=O)N(Cc3ccccc3)c3ccccc3)cc2)c1,inactive
17,COC(c1ccccc1)c1nnc(CCC(=O)N(C)CCc2ccccc2)o1 (stereo unspecified),"inconclusive: 6.31 µM [inhibitor, single point]"
18,Cc1ccc(-c2n[nH]c(=O)c3ccccc23)c(C)c1,"inconclusive: 14.1 µM [inhibitor, partial curve]"
19,COc1ccccc1NC(=O)CSc1nnc(CC(=O)Nc2cccc(C(F)(F)F)c2)n1C,inactive
20,CCOC(=O)c1c[nH]c2c(C(F)(F)F)cccc2c1=O,inactive
21,Cc1ccc(CCNS(=O)(=O)c2cc3c(cc2C)NC(=O)CO3)cc1,"inconclusive: 3.16 µM [inhibitor, partial curve]"

# Exported as tab-separated lines: entries from further up.
row	Structure (SMILES)	Potency
15	COc1ccc2c(c1)c(C(=O)O)c(C)n2-c1ccccc1	inconclusive: 8.91 µM [inhibitor, single point]
16	Cc1cccc(OCC(=O)Nc2ccc(S(=O)(=O)N(Cc3ccccc3)c3ccccc3)cc2)c1	inactive
